Measured values: US5510331A, “Antihypertensive peptides” (Roussel UCLAF, priority 1990, dated 1996)
At least one peptide structure holds a part that was inferred or is arguable (an end, a ring closure or a residue). Where a SMILES comes first, the peptide text is derived from it. Bridges are numbered along the chain shown (N, C = ends). [ ]: non-standard residue; d: D form. βAla = NCCC(=O)O

What follows are compounds tested against endotheline receptor (assay: Activity on the endotheline receptor: displacement of 125I endotheline from rat brain membrane preparation). Conditions: membrane preparation from rat posterior cortex and brain, 25° C., 60 minutes, 7 concentrations, read-out: IC50 (50% inhibiting concentration; concentration necessary to displace 50% of the specific radioactivity fixed on the receptor).
Type: binding
Procedure: A membrane preparation was made from rat posterior cortex and brain and the tissue was ground with a POLYTRON in a 50 mM Tris buffer pH=7.4. After 30 minutes at 25° C. (W.B.), the homogenate was centrifuged at 30,000 g for 15 minutes (2 centrifugations with intermediate taking up in the Tris buffer pH 7.4). The deposits were suspended in an incubation buffer (Tris 25 mM, pepstatine A 5 microg/ml, aprotinine 3 microg/ml, PMSF 0.1 mM, EDTA 3 mM, EGTA 1 mM pH 7.4). 2 ml aliquots were distributed in hemolysis tubes and ^125 I endotheline (approximately 50,000 dpm/tube) and the product to be studied were added. The product was first tested at 3×10^-5 M in triplicate. When the product tested displaced more than 50% of radioactivity linked specifically to the receptor, it was tested again in a range of 7 concentrations to determine the concentration which inhibited the radioactivity linked specifically to the receptor by 50%. In this way, the 50% inhibiting concentration was determined.
The non-specific bond was determined by the addition of endotheline at 10^-6 M (in triplicate) and the deposits were incubated at 25° C. for 60 minutes, put in a water-bath at 0° C. for 5 minutes, filtered under reduced pressure and rinsed with a Tris buffer 7.4 pH. The radioactivity was counted in the presence of scintillating Triton. The result was expressed directly as a 50% inhibiting concentration (IC50), or the concentration of product studied expressed in nM necessary to displace 50% of the specific radioactivity fixed on the receptor studied.
With `CCCC[C@@H]1NC(=O)[C@H](CC(C)C)NC(=O)[C@H](CO)NC(=O)[C@H](CO)NC(=O)[C@@H]2CSSC[C@H](NC(=O)[C@H](CCC(=O)O)NC(=O)[C@H](CCCCN)NC(=O)[C@H](CC(=O)O)NC1=O)C(=O)N[C@@H](C(C)C)C(=O)N[C@@H](Cc1ccc(O)cc1)C(=O)N[C@@H](Cc1ccccc1)C(=O)N[C@H](C(=O)N[C@@H](Cc1c[nH]cn1)C(=O)N[C@@H](CC(C)C)C(=O)N[C@@H](CC(=O)O)C(=O)N[C@H](C(=O)N[C@H](C(=O)N[C@@H](Cc1c[nH]c3ccccc13)C(=O)O)[C@@H](C)CC)[C@@H](C)CC)CSSC[C@H](N)C(=O)N[C@@H](CO)C(=O)N2` [Example 1, Nle-7!--ET1 Derivative] the IC50 was 10 nM. For `CCCC[C@@H]1NC(=O)[C@H](CC(C)C)NC(=O)[C@H](CO)NC(=O)[C@H](CO)NC(=O)[C@@H]2CSSC[C@H](NC(=O)[C@H](CCC(=O)O)NC(=O)[C@H](CCCCN)NC(=O)[C@H](CC(=O)O)NC1=O)C(=O)N[C@@H](C(C)C)C(=O)N[C@@H](Cc1ccc(O)cc1)C(=O)N[C@@H](Cc1ccccc1)C(=O)N[C@H](C(=O)N[C@@H](Cc1c[nH]cn1)C(=O)N[C@@H](CC(C)C)C(=O)N[C@@H](CC(=O)O)C(=O)N[C@H](C(=O)N[C@H](C(=O)N[C@@H](Cc1c[nH]c3ccccc13)C(N)=O)[C@@H](C)CC)[C@@H](C)CC)CSSC[C@H](N)C(=O)N[C@@H](CO)C(=O)N2` [Example 4, (Nle-7)-Amidotryptophan-21-ET1 derivative], the IC50 was 10 nM. For `CC[C@H](C)[C@H](NC(=O)[C@H](CC(=O)O)NC(=O)[C@H](CC(C)C)NC(=O)[C@H](Cc1c[nH]cn1)NC(=O)[C@@H]1CSSC[C@H](N)C(=O)N[C@@H](CO)C(=O)N[C@H]2CSSC[C@H](NC(=O)[C@H](CCC(=O)O)NC(=O)[C@H](CCCCN)NC(=O)[C@H](CC(=O)O)NC(=O)CCNC(=O)[C@H](CC(C)C)NC(=O)[C@H](CO)NC(=O)[C@H](CO)NC2=O)C(=O)N[C@@H](C(C)C)C(=O)N[C@@H](Cc2ccc(O)cc2)C(=O)N[C@@H](Cc2ccccc2)C(=O)N1)C(=O)N[C@H](C(=O)N[C@@H](Cc1c[nH]c2ccccc12)C(=O)O)[C@@H](C)CC` [Example 5, (Beta-alanine-7)-ET1 derivative] (H-CSCSSL[βAla]DKECVYFCHLDIIW-OH; disulfide 1-15, 3-11), the IC50 was 2.5 nM. Work on `CC[C@H](C)[C@H](NC(=O)[C@H](CC(=O)O)NC(=O)[C@H](CC(C)C)NC(=O)[C@H](Cc1c[nH]cn1)NC(=O)[C@@H]1CSSC[C@H](N)C(=O)N[C@@H](CO)C(=O)N[C@H]2CSSC[C@H](NC(=O)[C@H](CCC(=O)O)NC(=O)[C@H](CCCCN)NC(=O)[C@H](CC(=O)O)NC(=O)[C@H](C(C)C)NC(=O)[C@H](CC(C)C)NC(=O)[C@H](CO)NC(=O)[C@H](CO)NC2=O)C(=O)N[C@@H](C(C)C)C(=O)N[C@@H](Cc2ccc(O)cc2)C(=O)N[C@@H](Cc2ccccc2)C(=O)N1)C(=O)N[C@H](C(=O)N[C@@H](Cc1c[nH]c2ccccc12)C(=O)O)[C@@H](C)CC` [Example 6, (Val-7)-ET1 derivative] (H-CSCSSLVDKECVYFCHLDIIW-OH; disulfide 1-15, 3-11) yielded an IC50 of 5.2 nM.
